PubChem BioAssay AID652259 – Drosophila RNAi Screening Center | 2013

- Purpose: 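Knock-downs that push a Wingless-driven reporter up or down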 (primary screen)
- Cells: Drosophila clone 8 imaginal disc epithelial cells
- Reagents: long dsRNA against Drosophila genes
- Challenge: pathway stimulated by co-transfected Wingless expression plasmid
- Measured: 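Firefly luciferase from a tcf-site Wingless reporter, measured alongside co-transfected Renilla luciferase that tracks transfection; pathway stimulated by a Wingless plasmid; the firefly-to-Renilla ratio is not deposited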
- Reading the numbers: firefly reporter light: higher = more Wg reporter light, before normalisation; Renilla control light: higher = more transfected or surviving cells
- Hit rule: 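a knock-down is a candidate when at least two out of four statistical tests show it departing from its plate mean; one test alone signals a weak candidate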
- Meaning of the calls: active = candidate regulator (raises or lowers reporter); inactive = not a candidate
In all, the deposit lists about 22,000 reagents; this is an unselected part of those with a known target gene and a result. Over the whole deposit, 233 (1.1%) were called active. 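Light values are raw, unnormalised plate reads; the ratio scores behind the reporter calls were not deposited.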 A number with no mark means an inactive call. A plus sign joins genes that one reagent is predicted to hit. Not stated in the record: the amount of reagent, the time to read-out, the dose of the treatment.

Ubc84D [DRSC12610] — firefly reporter light, replicate 1 = 12291; Renilla control light, replicate 1 = 3621
CG13794 [DRSC02298] — firefly reporter light, replicate 1 = 2571; firefly reporter light, replicate 2 = 6610; Renilla control light, replicate 1 = 672; Renilla control light, replicate 2 = 2992
LpR1 [DRSC15665] — firefly reporter light, replicate 1 = 2300; firefly reporter light, replicate 2 = 5803; Renilla control light, replicate 1 = 1047; Renilla control light, replicate 2 = 2785
LpR1 [DRSC15669] — firefly reporter light, replicate 1 = 20704; Renilla control light, replicate 1 = 19352
LpR1 [DRSC15670] — firefly reporter light, replicate 1 = 18052; Renilla control light, replicate 1 = 14418
CG32487 [DRSC21745] — firefly reporter light, replicate 1 = 2.26e5; firefly reporter light, replicate 2 = 2.56e5; Renilla control light, replicate 1 = 1.30e5; Renilla control light, replicate 2 = 89167
CG3323 [DRSC18303] — firefly reporter light, replicate 1 = 20752; Renilla control light, replicate 1 = 7696
JhI-26 [DRSC06851] — firefly reporter light, replicate 1 = 10571; Renilla control light, replicate 1 = 3552
morgue [DRSC00264] — firefly reporter light, replicate 1 = 15515; Renilla control light, replicate 1 = 4880
ths [DRSC06153] — firefly reporter light, replicate 1 = 7349; Renilla control light, replicate 1 = 881
CG34345 [DRSC02126] — firefly reporter light, replicate 1 = 2535; firefly reporter light, replicate 2 = 3440; Renilla control light, replicate 1 = 672; Renilla control light, replicate 2 = 1245
Rfx [DRSC16820] — firefly reporter light, replicate 1 = 9561; Renilla control light, replicate 1 = 1766
MsR2 [DRSC08336] — firefly reporter light, replicate 1 = 10192; Renilla control light, replicate 1 = 4348
MsR2 [DRSC08337] — firefly reporter light, replicate 1 = 5304; Renilla control light, replicate 1 = 2477
MsR2 [DRSC22440] — firefly reporter light, replicate 1 = 5.84e5; firefly reporter light, replicate 2 = 5.23e5; Renilla control light, replicate 1 = 1.99e5; Renilla control light, replicate 2 = 1.14e5
CycA [DRSC09132] — firefly reporter light, replicate 1 = 1661; Renilla control light, replicate 1 = 1255
CycA [DRSC11123] — firefly reporter light, replicate 1 = 2944; Renilla control light, replicate 1 = 2533
nbs [DRSC11373] — firefly reporter light, replicate 1 = 5029; Renilla control light, replicate 1 = 2260
CG33461 [DRSC22892] — firefly reporter light, replicate 1 = 6.94e5; firefly reporter light, replicate 2 = 4.43e5; Renilla control light, replicate 1 = 2.93e5; Renilla control light, replicate 2 = 1.63e5
Uqcc1 + CG9948 [DRSC09690] — firefly reporter light, replicate 1 = 2181; firefly reporter light, replicate 2 = 7749; Renilla control light, replicate 1 = 1178; Renilla control light, replicate 2 = 3491
Arl1 [DRSC09667] — firefly reporter light, replicate 1 = 10906; Renilla control light, replicate 1 = 4040
dpa [DRSC07604] — firefly reporter light, replicate 1 = 2313; firefly reporter light, replicate 2 = 5622; Renilla control light, replicate 1 = 777; Renilla control light, replicate 2 = 2071
CG4681 [DRSC04481] — firefly reporter light, replicate 1 = 2577; firefly reporter light, replicate 2 = 6896; Renilla control light, replicate 1 = 737; Renilla control light, replicate 2 = 2112
CG9184 [DRSC08636] — firefly reporter light, replicate 1 = 9685; Renilla control light, replicate 1 = 4243
CG9184 [DRSC22184] — firefly reporter light, replicate 1 = 3.69e5; firefly reporter light, replicate 2 = 3.53e5; Renilla control light, replicate 1 = 1.74e5; Renilla control light, replicate 2 = 1.58e5
gammaTub37C [DRSC03535] — firefly reporter light, replicate 1 = 8544; Renilla control light, replicate 1 = 2205
CG8671 [DRSC03102] — firefly reporter light, replicate 1 = 3259; firefly reporter light, replicate 2 = 5355; Renilla control light, replicate 1 = 770; Renilla control light, replicate 2 = 2192
CG8671 [DRSC03103] — firefly reporter light, replicate 1 = 2448; firefly reporter light, replicate 2 = 5788; Renilla control light, replicate 1 = 793; Renilla control light, replicate 2 = 2501
MtnC [DRSC22879] — firefly reporter light, replicate 1 = 5.43e5; firefly reporter light, replicate 2 = 5.81e5; Renilla control light, replicate 1 = 2.36e5; Renilla control light, replicate 2 = 1.40e5
CG1773 [DRSC06688] — firefly reporter light, replicate 1 = 11933; Renilla control light, replicate 1 = 3337
CG43066 [DRSC06927] — firefly reporter light, replicate 1 = 5031; Renilla control light, replicate 1 = 2003
CG6983 [DRSC10757] — firefly reporter light, replicate 1 = 7995; Renilla control light, replicate 1 = 3008
